This is one part of the list. These are further read-outs of the screen, such as a control signal, another cell line or another target. No call is given for them. Compounds called inactive in the main read-out are mostly missing here. Words in brackets tell the shape of the fitted curve; partial curves, single points and poor fits give uncertain potencies.
Test: qHTS Assay for Lipid Storage Modulators in Drosophila S3 Cells;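 for cell number change: cells counted by Cell Tracker Red CMTPX staining in the red channel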
Settings: BODIPY lipid droplet fluorescence, 18-24 h; for cell number change: measured here: cell count max response, cells fed with added oleic acid
Method in brief: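 Drosophila S3 cells loaded with oleic acid (400 uM, as added) and compounds at several concentrations; lipid droplets imaged by 488-nm laser-scanning cytometry, 500–530 nm intensity and object ratio to cell channel. Percent activity normalized to 20 uM Triacsin C.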

[1] = measured here: lipid fluorescence (Fed channel) AC50, cells fed with added oleic acid
[2] = measured here: cell number channel AC50, cells fed with added oleic acid

Structure (SMILES) | cell number change [%] | AC50 [1] | AC50 [2]
COc1cc(OC)cc(C(=O)Nc2ccccc2C(=O)NCc2cccnc2)c1 | -19 | 6.51 µM [falling, single point] | –
C=CCN1C(=O)CS/C1=N\S(=O)(=O)c1ccc(Cl)cc1 | 18.3 | 2.31 µM [rising, partial curve, poor fit] | –
COc1ccc(S(=O)(=O)N(C)CC(=O)NCCN2CCOCC2)cc1 | -17.1 | 0.631 µM [falling, partial curve, poor fit] | –
CCOc1ccccc1NC(=O)CSc1nc2c(c(=O)n(C)c(=O)n2C)n1C | 19.7 | 18.4 µM [falling, single point] | –
CCOC(=O)C(C)/C(C)=N/NC(N)=S (stereo unspecified) | -0.94 | – | –
COc1ccccc1C(=O)NC(=O)Nc1nc(-c2ccccc2)cc(C(F)(F)F)n1 | 19.3 | 4.11 µM [rising, full curve, poor fit] | –
Cc1ccc(NC(=S)N2CCN(S(C)(=O)=O)CC2)cc1 | – | 29.1 µM [rising, single point] | –
CCCCN(C(=O)c1ccco1)c1nnc(-c2cc(OC)c(OC)c(OC)c2)s1 | -13.3 | – | –
CCN(CC(=O)Nc1ccc2c(c1)OCCO2)C(=O)CCOc1ccccc1 | 5.18 | – | –
CCc1ccccc1OCC(=O)Nc1cc(S(=O)(=O)N(CC)CC)ccc1N1CCOCC1 | -5.26 | 11.6 µM [rising, partial curve, poor fit] | –
CCN(CC(=O)Nc1c(F)cccc1F)C(=O)c1ccc(N2C(=O)c3ccccc3C2=O)cc1 | -80.3 | 5.8 µM [rising, partial curve] | 29.1 µM [falling, single point]
Cc1cc(C)c(C#N)c(SCC(=O)c2ccc(Cl)cc2Cl)n1 | 45.8 | 5.8 µM [rising, single point] | –
O=C(Nc1ccccc1Br)C1CC(=O)N(c2ccc3c(c2)OCCO3)C1 (stereo unspecified) | -32.2 | 5.8 µM [falling, full curve, poor fit] | 18.4 µM [falling, partial curve, poor fit]
Cc1cnn(-c2ccc3nnc(-c4ccc(Br)cc4)n3n2)c1 | 28 | 2.31 µM [rising, full curve] | –
Cc1ccccc1CSc1nnc(C)c(=O)n1N | -4.62 | 5.8 µM [rising, single point] | –
Cc1cc(S(=O)(=O)NCc2ccco2)c(C)cc1Cl | 17.6 | 23.1 µM [rising, single point] | –
Nc1ccc(S(=O)(=O)Nc2nccc(/C=C/c3ccccc3F)n2)cc1 | 31.5 | 1.03 µM [rising, full curve] | 1.3 µM [rising, full curve]
CN(Cc1ccc(F)cc1)Cc1nc(-c2ccccc2)no1 | 4.72 | 13 µM [rising, partial curve] | –
CC(C)(C)NC(=O)NC(=O)COC(=O)CNC(=O)c1cc(Cl)cc([N+](=O)[O-])c1 | -38 | – | 5.17 µM [falling, full curve]
O=C(NNC(=O)C1CCCCC1)c1ccncc1 | -5.71 | – | –

Structure (SMILES) | cell number change [%] | AC50 [1] | AC50 [2]
COc1cccc2[nH]c3c(N4CCCCC4)ncnc3c12 | -30.2 | 0.731 µM [falling, full curve, poor fit] | 0.366 µM [falling, full curve, poor fit]
NS(=O)(=O)c1ccc(NC(=S)N2CCN(C(=O)C3CCCO3)CC2)cc1 (stereo unspecified) | -11.9 | 9.2 µM [falling, partial curve] | –
O=C(Nc1ccccc1Cl)OC1CCCCC1 | 13.3 | – | –
Cc1ccc(S(=O)(=O)N/N=C(\c2ccccc2)C2CC2)cc1 | 13.4 | 0.0731 µM [rising, full curve, poor fit] | –
O=C1COc2ccc(S(=O)(=O)Nc3cccc(Cl)c3)cc2N1 | -12.7 | 6.51 µM [rising, single point] | –
Cc1cc([N+](=O)[O-])nn1CC(=O)Nc1cc(F)ccc1F | 2.64 | 3.26 µM [falling, single point] | 6.51 µM [falling, single point]
O=C1Nc2cccnc2Sc2ccccc21 | -9.2 | 1.03 µM [falling, full curve] | –
COc1cc(CN2C(=O)C(NC(=O)c3ccco3)(C(F)(F)F)C3=C2CC(C)(C)CC3=O)cc(OC)c1 (stereo unspecified) | 6.62 | 3.66 µM [falling, single point] | 1.16 µM [falling, partial curve, poor fit]
CSc1nnnn1-c1cccc(O)c1 | -2.63 | 11.6 µM [rising, single point] | –
Cc1cc(C)nc(SCC(=O)NCC2COc3ccccc3O2)n1 (stereo unspecified) | -3.03 | 25.9 µM [rising, single point] | –
O=C(O)c1ccc(N2C(=O)C3ON(c4ccccc4)C(c4ccccc4F)C3C2=O)cc1 (stereo unspecified) | -18.6 | 18.4 µM [falling, partial curve] | –
Cc1[nH]c(=O)[nH]c(=O)c1S(=O)(=O)N1CCOCC1 | -12.8 | – | –
CCCNC(=O)c1cc(S(=O)(=O)N2CCCCC2)ccc1N1CCOCC1 | -50 | – | 10.3 µM [falling, single point]
COc1ccc(C(=O)C[n+]2ccc(-c3nnc4n3CCCCC4)cc2)cc1 | 6.19 | – | 1.46 µM [rising, single point]
Cc1ccc(C(=O)NCCC2=CCCCC2)cc1S(=O)(=O)N1CCCCC1 | -13.4 | 0.517 µM [falling, full curve] | 0.366 µM [falling, partial curve, poor fit]
Cc1c(C(=O)N2CC(C)OC(C)C2)oc2ccccc12 (stereo unspecified) | -3.9 | – | 0.082 µM [falling, full curve, poor fit]
CC(=O)Nc1ccc(Cc2nc3ccccc3[nH]2)cc1 | -7.3 | – | 3.26 µM [falling, single point]
COc1cc(/C=C/C(=O)N2CCC=CC2=O)cc(OC)c1OC | -23.4 | 18.4 µM [falling, single point] | –
COc1cccc(C(=O)CN(C(=O)c2ccc(Cl)cc2Cl)N2C(=O)c3ccccc3C2=O)c1 | 10 | – | 6.51 µM [rising, single point]
C/C(CCN1CCc2nc(-c3ccccc3)c(-c3ccccc3)cc2C1)=N\O[C@@H](C)c1cc(-c2c(C)cc(C)cc2C)no1 | 13.8 | 0.116 µM [rising, full curve, poor fit] | –

Structure (SMILES) | cell number change [%] | AC50 [1] | AC50 [2]
CCOC(=O)C1=C(C)Nc2ccccc2N=C1NC(=O)CCCN1C(=O)c2ccccc2C1=O | 7.59 | 1.64 µM [rising, partial curve] | –
CC(=O)N(CCc1ccccc1)Cc1cc2ccc(C)c(C)c2[nH]c1=O | -19.3 | 0.231 µM [falling, full curve, poor fit] | –
C/C(Cl)=C\Cn1c(Nc2cccc(C)c2)nc2c1c(=O)n(C)c(=O)n2C | – | – | 0.103 µM [rising, full curve, poor fit]
Cc1ccc(NC2=C(C(=O)c3ccccc3)N(C)S(=O)(=O)c3ccccc32)cc1 | -14.3 | 13 µM [falling, single point] | –
O=C1C2C3C=CC(C2C(=O)N1c1ccc(O)cc1)C1C2C(=O)N(c4ccc(O)cc4)C(=O)C2C31 (stereo unspecified) | -17.8 | 0.103 µM [falling, full curve, poor fit] | –
COCCN1CCN(C(=O)C2CCC(=O)N(CCc3ccccc3)C2)CC1 (stereo unspecified) | 7.92 | 0.58 µM [falling, single point] | –
CC(C)(C)c1ccc(CSc2nnc(-c3ccccc3NC(=O)c3ccccc3)o2)cc1 | 42.3 | 9.2 µM [rising, partial curve] | 5.8 µM [rising, partial curve]
N#CCc1c(C#N)c(N)nc(N2CCN(c3ccc(F)cc3)CC2)c1C#N | – | 2.31 µM [rising, partial curve] | –
O=C1CC2(CON=C2c2ccc(F)cc2)C(=O)N1c1ccc(F)cc1 (stereo unspecified) | 2.62 | – | –
Cc1ccnc2nc(C(=O)OCCOc3cccc(Br)c3)nn12 | 16.9 | 0.92 µM [falling, full curve] | –
COc1ccc(-c2cn3ccccc3n2)cc1[N+](=O)[O-] | – | 6.51 µM [rising, single point] | –
CCOC(=O)Cc1csc(SCC(=O)c2c(N)n(CC(C)C)c(=O)n(C)c2=O)n1 | -32.5 | 0.00731 µM [falling, full curve, poor fit] | 4.61 µM [falling, full curve]
CCC(C)C(=O)Nc1ccc([N+](=O)[O-])cc1OC (stereo unspecified) | -8.9 | – | –
Cc1cccc(-c2nnn3c2nc(NCCc2ccc(S(N)(=O)=O)cc2)c2ccccc23)c1 | – | 1.84 µM [falling, partial curve] | 1.84 µM [falling, partial curve]
Cc1ccc(S(=O)(=O)N2CCCC2)cc1[N+](=O)[O-] | 12 | 6.51 µM [falling, single point] | –
C/C(=N\NC(=O)COc1ccccc1)c1cccs1 | 117 | 2.91 µM [rising, partial curve, poor fit] | 0.231 µM [rising, full curve, poor fit]
CCc1nn(CC(=O)N(C)C2CCCCC2)c(=O)c2cc3cc(C)ccc3n12 | 25.4 | 29.1 µM [rising, single point] | –
Cc1ccc(NC(=O)COC(=O)CCOc2ccccc2C)cc1 | -2.87 | 0.651 µM [falling, single point] | –
Cc1nc(-c2ccc(Cl)cc2)sc1C1(C)CC(c2ccc(OC(F)(F)F)cc2)=NO1 (stereo unspecified) | -38.2 | – | 0.82 µM [falling, full curve]

A second format for some results above.

| Structure (SMILES) | cell number change [%] | AC50 [1] | AC50 [2] |
| --- | --- | --- | --- |
| C/C(=N\NC(=O)COc1ccccc1)c1cccs1 | 117 | 2.91 µM [rising, partial curve, poor fit] | 0.231 µM [rising, full curve, poor fit] |
| CCc1nn(CC(=O)N(C)C2CCCCC2)c(=O)c2cc3cc(C)ccc3n12 | 25.4 | 29.1 µM [rising, single point] | – |
| Cc1ccc(NC(=O)COC(=O)CCOc2ccccc2C)cc1 | -2.87 | 0.651 µM [falling, single point] | – |
| Cc1nc(-c2ccc(Cl)cc2)sc1C1(C)CC(c2ccc(OC(F)(F)F)cc2)=NO1 (stereo unspecified) | -38.2 | – | 0.82 µM [falling, full curve] |

— PubChem BioAssay AID2685 (National Center for Advancing Translational Sciences (NCATS), 2010)
